Our source for the binding values is article doi:10.1101/2021.05.06.443019.

Protein sequences, listed by entry. Tags and fused reporters are not part of them. Lines headed by an entry give the natural chain unless they say otherwise; changes in a name come on top.
UniProt Q91WV7: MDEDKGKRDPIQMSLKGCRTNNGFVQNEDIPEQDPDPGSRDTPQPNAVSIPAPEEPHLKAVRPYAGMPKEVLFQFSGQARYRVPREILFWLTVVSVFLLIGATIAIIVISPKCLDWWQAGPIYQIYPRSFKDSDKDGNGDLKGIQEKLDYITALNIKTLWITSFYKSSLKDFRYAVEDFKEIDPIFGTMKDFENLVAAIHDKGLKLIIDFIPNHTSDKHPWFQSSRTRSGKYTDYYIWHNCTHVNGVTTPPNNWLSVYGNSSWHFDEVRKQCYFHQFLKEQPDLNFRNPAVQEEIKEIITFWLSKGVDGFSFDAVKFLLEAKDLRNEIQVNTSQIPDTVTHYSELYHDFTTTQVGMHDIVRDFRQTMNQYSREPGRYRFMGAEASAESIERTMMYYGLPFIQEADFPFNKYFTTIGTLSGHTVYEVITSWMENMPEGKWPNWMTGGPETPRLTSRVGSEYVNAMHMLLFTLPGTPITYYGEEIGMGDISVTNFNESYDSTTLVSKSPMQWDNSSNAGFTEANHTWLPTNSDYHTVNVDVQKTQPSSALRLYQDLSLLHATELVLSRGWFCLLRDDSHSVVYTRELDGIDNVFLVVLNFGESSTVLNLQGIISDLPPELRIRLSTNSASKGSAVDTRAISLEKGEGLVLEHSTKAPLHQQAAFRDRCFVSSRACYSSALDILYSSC
UniProt Q9QXA6: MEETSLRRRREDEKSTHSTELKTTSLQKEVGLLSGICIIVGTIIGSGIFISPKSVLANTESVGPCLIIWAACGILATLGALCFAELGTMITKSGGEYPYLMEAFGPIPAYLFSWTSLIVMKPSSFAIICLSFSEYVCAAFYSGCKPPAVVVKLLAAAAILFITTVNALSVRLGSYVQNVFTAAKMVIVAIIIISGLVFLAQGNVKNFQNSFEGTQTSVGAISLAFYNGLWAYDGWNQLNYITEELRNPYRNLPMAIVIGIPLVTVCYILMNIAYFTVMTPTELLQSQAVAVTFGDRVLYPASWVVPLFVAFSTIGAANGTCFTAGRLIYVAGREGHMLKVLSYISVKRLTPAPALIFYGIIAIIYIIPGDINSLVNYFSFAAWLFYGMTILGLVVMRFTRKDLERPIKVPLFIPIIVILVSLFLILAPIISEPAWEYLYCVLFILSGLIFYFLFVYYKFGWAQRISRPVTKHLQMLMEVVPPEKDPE

These are yes or no findings as the source states them, for the method shown. Binding can be weak; no strength is given.

For test [1], the target named is murine rBAT (purified with b^0,+AT) (murine) (UniProt Q91WV7). As to the kind of experiment: SDS-PAGE under non-reducing and reducing conditions.
Test [2] concerns the target ovine rBAT V355C with N-terminal EGFP (HeLa) (ovine). As to the kind of experiment: non-reducing SDS-PAGE with dual-colour in-gel fluorescence.
For test [3], the target named is ovine rBAT V355C/D349R/D359R with N-terminal EGFP (HeLa) (ovine). The description is as above.
For test [4], the target named is ovine rBAT V355C/R362D/R326D with N-terminal EGFP (HeLa) (ovine). The description is as above.

In the case of “murine b^0,+AT (purified with rBAT) (from UniProt Q9QXA6)”, in test [1], the binding result is “binds”.

As for “ovine b^0,+AT with C-terminal TwinStrep II and mCherry (HeLa) (from UniProt A0ACI6QX61 1-487)”, the binding entry in test [2], in test [3] and in test [4] was “binds” throughout.
